Results from the supplement of paper PMC4894684.
± gives the standard deviation of the averaged measurements. For some assays here: This list holds what a sample rich in strong results left over. This is a selection; strong and weak results do not stand in their true shares.

Legend:
HFF = test: uninfected host cell viability relative to vehicle control; higher = less host cell toxicity; conditions: 5 µM; 72 h; oxygen 21 %
[1] = test system: Toxoplasma gondii RH (in HFF); test: parasite growth relative to the screen mean (all compounds = 100%); higher = less inhibition of parasite growth; conditions: 5 µM; 72 h; oxygen 21 %
Outline: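 Each value is parasite growth expressed against the screen mean, averaged over two screens, where the mean of all compounds = 100%. The screen used 5 µM final compound on confluent human foreskin fibroblasts infected with RH β-Gal–GFP Toxoplasma (MOI 1:5) within 2 h and grown 72 h at 21% O2. Parasite number was measured by a CPRG β-Gal assay against in-plate standard curves.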
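Throughout, for uninfected host cell viability relative to vehicle control: confluent HFF monolayers, run in parallel with the Toxoplasma growth screen as a host toxicity counterscreen.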

Structure (SMILES): O=C1NC(=O)c2c1c(-c1ccccc1)cc1[nH]c3ccc(O)cc3c21
- uninfected host cell viability (HFF): 72.9 ± 1%
- parasite growth [1]: < 0%
